Experimental data as given in patent publication US20150064174A1 (BRIGHAM AND WOMEN S HOSPITAL, published 2015).
No constants are given. Whether binding was seen depends on the method and setting. Some entries that bind do so weakly or less than the wild type.

By UniProt entry, the sequences of proteins in these tests, tags left out. Residues count along the entry.
UniProt P03200, residues 1-860: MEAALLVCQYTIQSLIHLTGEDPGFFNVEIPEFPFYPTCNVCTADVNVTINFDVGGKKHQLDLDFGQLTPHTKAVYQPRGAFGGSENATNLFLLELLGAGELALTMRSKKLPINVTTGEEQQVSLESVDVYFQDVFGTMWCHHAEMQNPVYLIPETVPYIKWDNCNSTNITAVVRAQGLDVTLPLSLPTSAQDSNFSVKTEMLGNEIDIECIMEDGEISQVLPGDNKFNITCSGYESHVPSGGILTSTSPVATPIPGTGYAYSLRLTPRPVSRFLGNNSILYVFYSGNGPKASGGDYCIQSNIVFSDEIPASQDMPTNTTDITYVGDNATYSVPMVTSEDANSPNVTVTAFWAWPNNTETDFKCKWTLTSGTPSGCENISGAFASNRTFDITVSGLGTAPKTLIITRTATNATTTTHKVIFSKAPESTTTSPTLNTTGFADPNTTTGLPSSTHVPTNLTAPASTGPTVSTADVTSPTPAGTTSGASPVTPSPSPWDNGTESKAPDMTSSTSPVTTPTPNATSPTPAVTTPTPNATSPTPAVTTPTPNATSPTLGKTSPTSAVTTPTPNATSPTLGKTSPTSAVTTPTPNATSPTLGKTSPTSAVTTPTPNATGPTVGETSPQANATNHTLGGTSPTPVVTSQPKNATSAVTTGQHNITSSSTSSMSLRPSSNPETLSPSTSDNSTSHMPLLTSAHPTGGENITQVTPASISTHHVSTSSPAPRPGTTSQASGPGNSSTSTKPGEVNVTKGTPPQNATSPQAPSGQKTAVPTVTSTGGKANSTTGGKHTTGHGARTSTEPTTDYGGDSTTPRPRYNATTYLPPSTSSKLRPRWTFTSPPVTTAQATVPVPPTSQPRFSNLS

How the values were obtained:
[1] = target: Epstein-Barr virus (EBV)-encoded glycoprotein 350 (gp350) (Epstein-Barr virus) (UniProt P03200); test: ELISA, plate-coated gp350 (FIG. 6)
[2] = target: Epstein-Barr virus (EBV)-encoded glycoprotein 350 (gp350) (Epstein-Barr virus) (UniProt P03200); test: immunoassay with recombinant host cell supernatants (FIG. 9)
[3] = target: Epstein-Barr virus (EBV)-encoded glycoprotein 350 (gp350) (Epstein-Barr virus) (UniProt P03200); test: ELISA, plate-coated purified gp350, HEK293T supernatant, anti-human IgG-HRP

Measured: binding

B1: recombinant humanized (chimeric) 72A1 antibody, heavy chain 1 and lambda light chain (Vh1L) (antibody, human IgG1, V domains shown)
VH: EVQLQQSGPELVKPGTSMKISCKASGSSFTDYTMNWMKQSHGKNLEWIGLINPYNGGTRYNQKFKGKATLTLDKSSSTAYMEVLSLTSEDSAVYYCAGGLRRVNWFAYWGQGTLVSVSA
VL: QAVLTQESALTTSPGETVTLTCRSSTGAVTTSNYANWVQEKPDHLFTGLIGGTNNRVPGVPARFSGSLIGDKAALTITGAQTEDEAIYFCVLWHSNHWVFGGGTKLTVL
binds: all assays above
